SMILES strings stand for the structures.

What all share (experiment): Growth inhibition by peptide-doxorubicin conjugates (MTT, 48 hours)
What all share (assay type): cell-based
Holding throughout (settings): Homo sapiens, read-out: molar concentration giving 50% inhibition of the growth of the cells

One assay concerns HeLa. As for the experimental part: (§1) To evaluate the biological activity of peptide-doxorubicin conjugates, the inhibition of the growth of tumor cells in culture is measured.
(§2) The cells are sown the night before in 96-well plates at the rate of 10^3 cells per well.

Another assay concerns K562. How it is done: as §1, §2
The next assay relates to MCF7. How it is done:
as §1, §2

As for `COc1cccc2c1C(=O)c1c(O)c3c(c(O)c1C2=O)C[C@@](O)(C(=O)CO)C[C@@H]3O[C@H]1C[C@H](N)[C@H](O)[C@H](C)O1` [Doxorubicin (natural), Doxorubicin], the IC50 in the assay on HeLa is 200 nM; with K562 it was 40 nM; in the assay on MCF7 it was 200 nM.

The values are drawn from patent US8003595B2, “Amino acid sequences facilitating penetration of a substance of interest into cells and/or cell nuclei” (Cellectis, priority 2000, dated 2011).
